PubChem BioAssay AID1259308, NCATS | 2017

Assay: 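Knock-downs that increase output of a recombinant reporter protein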 (primary screen)
Cells: human HEK293 embryonic kidney cells stably expressing firefly luciferase (HEK-CMV-Luc2-Hygro)
Reagent: single siRNA against human genes, 0.8 pmol siRNA per well
Duration: 72 h
Detection: 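Luciferase light (ONE-Glo) measured on one replicate plate set and viability (CellTiter-Glo) on the other, scaled to a negative control siRNA, with robust z-scores and luciferase per cell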
Scale: total luciferase, z-score and total luciferase, % of control: higher = more reporter protein produced
Rule for the call: 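Active when the median/MAD z-score for overall luciferase is greater than 3; a gene was taken forward for validation with new siRNAs if at least two of its three siRNAs passed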
Meaning of the calls: active = raised luciferase; inactive = no rise
The whole screen tested about 59,000 reagents; below is a random part of them. About 1,510 of all reagents (2.6%) count as active. 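Calls use total luciferase alone and ignore viability, so some active siRNAs may act by altering cell number.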 Reagents against one gene are numbered here. Not all columns of the deposit are shown.

For CHCHD3 (GeneID 54927) #1, the entry reads total luciferase, z-score -0.619; total luciferase, % of control 69.6; inactive.
CHCHD3 (GeneID 54927) #2 gave total luciferase, z-score 0.72; total luciferase, % of control 96.2; inactive.
After knock-down of CHCHD3 (GeneID 54927) #3, the screen gave total luciferase, z-score 1.11; total luciferase, % of control 104; inactive.
TMEM65 (GeneID 157378) #1 gave total luciferase, z-score -0.657; total luciferase, % of control 68.8; inactive.
Depletion of TMEM65 (GeneID 157378) #2 gave: total luciferase, z-score 0.5; total luciferase, % of control 91.8; inactive.
Against TMEM65 (GeneID 157378) #3, the entry reads total luciferase, z-score 1.68; total luciferase, % of control 115; inactive.
After knock-down of SCOC (GeneID 60592) #1, the screen gave total luciferase, z-score 0.394; total luciferase, % of control 89.7; inactive.
Silencing of SCOC (GeneID 60592) #2 gave: total luciferase, z-score -0.647; total luciferase, % of control 69; inactive.
After knock-down of SCOC (GeneID 60592) #3 the results were total luciferase, z-score 0.588; total luciferase, % of control 93.6; inactive.
Against BRD3 (GeneID 8019) #1 the deposit lists total luciferase, z-score -0.692; total luciferase, % of control 68.1; inactive.
Silencing of BRD3 (GeneID 8019) #2 gave: total luciferase, z-score -0.131; total luciferase, % of control 79.3; inactive.
Against BRD3 (GeneID 8019) #3 the deposit lists total luciferase, z-score 0.656; total luciferase, % of control 94.9; inactive.
Knock-down of KIR2DS1 (GeneID 3806) #1 gave: total luciferase, z-score 2.26; total luciferase, % of control 127; inactive.
KIR2DS1 (GeneID 3806) #2 scored total luciferase, z-score -0.812; total luciferase, % of control 65.7; inactive.
After knock-down of KIR2DS1 (GeneID 3806) #3, the record shows total luciferase, z-score -1.08; total luciferase, % of control 60.3; inactive.
Silencing of SAA4 (GeneID 6291) #1 resulted in: total luciferase, z-score 0.785; total luciferase, % of control 97.5; inactive.
Knock-down of SAA4 (GeneID 6291) #2 resulted in: total luciferase, z-score 0.0649; total luciferase, % of control 83.2; inactive.
Against SAA4 (GeneID 6291) #3, the entry reads total luciferase, z-score 1.89; total luciferase, % of control 120; inactive.
CHMP5 (GeneID 51510) #1 showed total luciferase, z-score -0.657; total luciferase, % of control 68.8; inactive.
For CHMP5 (GeneID 51510) #2, the values are total luciferase, z-score -0.422; total luciferase, % of control 73.5; inactive.
For CHMP5 (GeneID 51510) #3, the values are total luciferase, z-score 1.63; total luciferase, % of control 114; inactive.

An excerpt from above, limited to “total luciferase, z-score”:
CHCHD3 (GeneID 54927) #2	0.72
CHCHD3 (GeneID 54927) #3	1.11
TMEM65 (GeneID 157378) #1	-0.657
